Results are given in words; binding and its absence hold for the method and conditions named. In cells and extracts the contact can be indirect. Some binding calls cover weakened binding; strength is not graded here. Sequences can lack the tags named with a protein.
Key:
Assay in all cases: proximity ligation; Duolink in situ PLA in fixed HEK293 cells transfected with HA-tagged PAHwt, R241C or R243Q; primary antibodies against PAH and USP19 together; single antibodies as negative control
[1] = biological target: T1, HA-tagged PAH R243Q (human) (UniProt P00439)
T1 sequence: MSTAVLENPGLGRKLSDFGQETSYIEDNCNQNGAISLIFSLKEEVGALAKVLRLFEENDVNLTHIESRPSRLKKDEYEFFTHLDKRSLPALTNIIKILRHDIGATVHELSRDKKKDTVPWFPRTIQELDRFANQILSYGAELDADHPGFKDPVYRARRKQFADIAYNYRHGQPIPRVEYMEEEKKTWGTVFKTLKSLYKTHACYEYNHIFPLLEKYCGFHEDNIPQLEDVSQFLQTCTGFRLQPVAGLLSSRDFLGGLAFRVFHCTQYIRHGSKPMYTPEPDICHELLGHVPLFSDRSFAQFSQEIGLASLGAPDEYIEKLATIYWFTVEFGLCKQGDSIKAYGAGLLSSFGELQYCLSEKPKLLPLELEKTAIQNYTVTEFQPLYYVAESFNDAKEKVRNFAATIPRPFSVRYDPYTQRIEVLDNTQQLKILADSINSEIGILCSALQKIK

[2] = biological target: T2, HA-tagged PAH R241C (human) (UniProt P00439)
T2 sequence: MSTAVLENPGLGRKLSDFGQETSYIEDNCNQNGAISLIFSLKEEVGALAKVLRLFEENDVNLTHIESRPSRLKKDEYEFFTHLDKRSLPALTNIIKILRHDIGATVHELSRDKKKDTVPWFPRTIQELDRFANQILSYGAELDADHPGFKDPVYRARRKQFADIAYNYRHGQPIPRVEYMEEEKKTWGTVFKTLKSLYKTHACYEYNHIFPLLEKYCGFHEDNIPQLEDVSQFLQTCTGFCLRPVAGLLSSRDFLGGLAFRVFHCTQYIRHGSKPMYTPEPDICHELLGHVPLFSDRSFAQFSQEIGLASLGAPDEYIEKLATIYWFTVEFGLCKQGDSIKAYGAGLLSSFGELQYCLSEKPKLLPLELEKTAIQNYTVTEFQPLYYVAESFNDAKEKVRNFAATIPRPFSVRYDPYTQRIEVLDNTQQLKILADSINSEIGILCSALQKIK

[3] = biological target: T3, HA-tagged PAH wild-type (human) (UniProt P00439)
T3 sequence: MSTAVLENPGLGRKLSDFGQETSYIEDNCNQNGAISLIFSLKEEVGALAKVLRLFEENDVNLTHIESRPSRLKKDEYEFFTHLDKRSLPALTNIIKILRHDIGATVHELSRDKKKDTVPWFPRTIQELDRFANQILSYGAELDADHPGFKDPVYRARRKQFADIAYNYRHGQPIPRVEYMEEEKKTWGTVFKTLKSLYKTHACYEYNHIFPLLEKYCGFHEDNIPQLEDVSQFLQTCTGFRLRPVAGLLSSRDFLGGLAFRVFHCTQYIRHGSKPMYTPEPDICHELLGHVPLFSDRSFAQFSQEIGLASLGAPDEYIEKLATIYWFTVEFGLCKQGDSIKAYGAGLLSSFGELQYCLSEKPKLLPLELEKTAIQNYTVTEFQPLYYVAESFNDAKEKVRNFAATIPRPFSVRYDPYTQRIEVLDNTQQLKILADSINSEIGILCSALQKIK

Measured: binding

B1: USP19 (detected with USP19 antibody in HEK293 cells) (enzyme, UniProt O94966 1-1318)
chain: MSGGASATGPRRGPPGLEDTTSKKKQKDRANQESKDGDPRKETGSRYVAQAGLEPLASGDPSASASHAAGITGSRHRTRLFFPSSSGSASTPQEEQTKEGACEDPHDLLATPTPELLLDWRQSAEEVIVKLRVGVGPLQLEDVDAAFTDTDCVVRFAGGQQWGGVFYAEIKSSCAKVQTRKGSLLHLTLPKKVPMLTWPSLLVEADEQLCIPPLNSQTCLLGSEENLAPLAGEKAVPPGNDPVSPAMVRSRNPGKDDCAKEEMAVAADAATLVDEPESMVNLAFVKNDSYEKGPDSVVVHVYVKEICRDTSRVLFREQDFTLIFQTRDGNFLRLHPGCGPHTTFRWQVKLRNLIEPEQCTFCFTASRIDICLRKRQSQRWGGLEAPAARVGGAKVAVPTGPTPLDSTPPGGAPHPLTGQEEARAVEKDKSKARSEDTGLDSVATRTPMEHVTPKPETHLASPKPTCMVPPMPHSPVSGDSVEEEEEEEKKVCLPGFTGLVNLGNTCFMNSVIQSLSNTRELRDFFHDRSFEAEINYNNPLGTGGRLAIGFAVLLRALWKGTHHAFQPSKLKAIVASKASQFTGYAQHDAQEFMAFLLDGLHEDLNRIQNKPYTETVDSDGRPDEVVAEEAWQRHKMRNDSFIVDLFQGQYKSKLVCPVCAKVSITFDPFLYLPVPLPQKQKVLPVFYFAREPHSKPIKFLVSVSKENSTASEVLDSLSQSVHVKPENLRLAEVIKNRFHRVFLPSHSLDTVSPSDTLLCFELLSSELAKERVVVLEVQQRPQVPSVPISKCAACQRKQQSEDEKLKRCTRCYRVGYCNQLCQKTHWPDHKGLCRPENIGYPFLVSVPASRLTYARLAQLLEGYARYSVSVFQPPFQPGRMALESQSPGCTTLLSTGSLEAGDSERDPIQPPELQLVTPMAEGDTGLPRVWAAPDRGPVPSTSGISSEMLASGPIEVGSLPAGERVSRPEAAVPGYQHPSEAMNAHTPQFFIYKIDSSNREQRLEDKGDTPLELGDDCSLALVWRNNERLQEFVLVASKELECAEDPGSAGEAARAGHFTLDQCLNLFTRPEVLAPEEAWYCPQCKQHREASKQLLLWRLPNVLIVQLKRFSFRSFIWRDKINDLVEFPVRNLDLSKFCIGQKEEQLPSYDLYAVINHYGGMIGGHYTACARLPNDRSSQRSDVGWRLFDDSTVTTVDESQVVTRYAYVLFYRRRNSPVERPPRAGHSEHHPDLGPAAEAAASQASRIWQELEAEEEPVPEGSGPLGPWGPQDWVGPLPRGPTTPDEGCLRYFVLGTVAALVALVLNVFYPLVSQSRWR
binds: all assays above
